PubChem BioAssay AID686938 | Drosophila RNAi Screening Center, 2013
The deposit covers about 23,000 reagents; shown is a random part of those with a known target gene and a result. Of all reagents, 75 (0.33%) were called active. 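Raw plate signals without normalisation; calls rest on plate z-scores that were not deposited; ratio present for only 364 wells.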 Entries without a mark were called inactive. Names joined by + are all predicted targets of the reagent. Not given: the dose of the treatment.

Assay: 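Fly genes required for calcium entry once internal stores are emptied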 (primary screen)
Cells: Drosophila S2R+ cells
Reagents: long dsRNA against Drosophila genes, about 0.25 µg dsRNA per well, roughly 10,000 cells
Time to read-out: 5 days of knock-down before the calcium assay
Conditions: thapsigargin (SERCA pump blocker) to empty calcium stores; entry signal taken 4 min after adding it
Read-out: 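Per-well fluo-4 fluorescence in two replicates, unnormalised, measured in resting cells and 4 min after store depletion by the SERCA blocker thapsigargin; ratio of the two present in few wells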
Reading the numbers: calcium entry signal: higher = stronger calcium signal after store depletion; entry to resting ratio: higher = more calcium entry relative to resting level; resting calcium signal: higher = higher resting calcium signal
Active means: 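Called when the plate z-score of the entry-to-rest ratio, mean of duplicates, falls below −3; wells with low overall dye signal (Fmax z below −2) or more than five off-targets excluded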
Meaning of the calls: active = strongly reduced calcium entry; inactive = no strong reduction

calcium entry signal, replicate 1 (fluorescence units)	calcium entry signal, replicate 2 (fluorescence units)	entry to resting ratio	resting calcium signal, replicate 1 (fluorescence units)	resting calcium signal, replicate 2 (fluorescence units)	predicted target	PubChem SID
3.39e7	4.94e7		1.63e7	2.15e7	AstCC	SID104182196
3.33e7	4.35e7		1.73e7	1.94e7	CG32591	SID104198855
3.21e7	4.79e7		1.52e7	2.09e7	yrt	SID104196351
4.55e7	4.99e7		2.18e7	2.41e7	Pkcdelta	SID104199148
4.31e7	5.46e7		2.00e7	2.57e7	Pkcdelta	SID104199191
3.74e7	4.29e7		1.63e7	2.04e7	CG8569	SID104187006
3.40e7	2.77e7		2.24e7	1.58e7	fzy	SID104183326
2.70e7	2.99e7		1.22e7	1.35e7	TTLL12	SID104186347
2.95e7	4.27e7		1.32e7	2.99e7	jim	SID104191681
1.27e7	1.56e7		8.83e6	1.06e7	RpL35A	SID104192094
2.75e7			1.30e7		NaCP60E	SID104184099
3.08e7	3.51e7		1.71e7	1.57e7	NaCP60E	SID104201126
2.00e7	2.50e7		9.63e6	1.15e7	CG9297	SID104196261
4.17e7	3.91e7		1.74e7	1.63e7	CG42516 + Pbp49	SID104185865
3.25e7	4.49e7		1.65e7	2.02e7	CG2310	SID104195230
3.63e7	5.38e7		1.95e7	2.27e7	janB	SID104196765
3.53e7	5.18e7		1.72e7	2.10e7	Gr32a	SID104182192
3.08e7	2.83e7		1.38e7	1.32e7	CG14763	SID104186289
5.55e7	3.46e7		2.36e7	1.51e7	CG10445	SID104194039
2.84e7	4.35e7		1.29e7	1.90e7	fs(1)h	SID104198570
4.73e7	3.23e7		3.12e7	1.43e7	corn	SID104190813
3.84e7	5.34e7		1.91e7	3.11e7	corn	SID104201559
3.53e7	3.90e7		1.54e7	2.01e7	GstZ1	SID104196270
3.26e7	3.61e7		4.51e7	1.78e7	CG6800	SID104195911
2.23e7	2.33e7		1.13e7	1.30e7	CG15784	SID104197882
2.51e7	3.84e7		1.23e7	2.72e7	Smn	SID104190015
4.60e7			2.12e7		rost	SID104183395
4.84e7	5.04e7		1.97e7	2.30e7	CG13062	SID104189737
3.71e7	3.13e7		1.84e7	1.67e7	GstD9	SID104193977
3.52e7			1.63e7		Paris	SID104180243
3.83e7	4.10e7		1.97e7	1.91e7	Shal	SID104189417
2.92e7	5.63e7		1.42e7	2.24e7	Shal	SID104191075
3.94e7	3.49e7		1.72e7	1.65e7	Osi7	SID104191968
2.41e7	3.01e7		1.09e7	1.56e7	CG7611	SID104191632
2.08e7	2.79e7		1.16e7	1.37e7	Polr3E	SID104191672
3.25e7	4.57e7		1.71e7	2.27e7	CG4835	SID104190244
3.24e7	4.09e7		1.60e7	1.75e7	CG12209	SID104185911
3.04e7	2.62e7		1.54e7	1.20e7	CG31244	SID104201296
2.86e7	3.94e7		1.52e7	1.57e7	COX6CL	SID104180687
3.25e7	3.44e7		1.63e7	1.57e7	Nup35	SID104199791
2.04e7	3.91e7		1.17e7	1.97e7	PpV	SID104198492
3.62e7	4.25e7		1.91e7	1.96e7	PpV	SID104202664
1.81e7	1.43e7		1.09e7	8.46e6	spn-F	SID104194267
2.79e7	6.23e7		1.39e7	2.99e7	CG7369	SID104191614
4.34e7	3.93e7		2.21e7	1.70e7	CG6106	SID104199763
4.53e7			2.67e7		Kebab	SID104180619
3.94e7	4.69e7		1.91e7	2.08e7	Cyp9b1	SID104187181
6.42e7	6.27e7	2.1	3.04e7	2.74e7	CG17959	SID104197934
3.98e7	4.75e7		1.77e7	2.10e7	dgrn	SID104191946
3.33e7	4.15e7		1.55e7	1.56e7	pcm	SID104200153
3.13e7			1.53e7		Nap1	SID104184418
2.86e7	3.39e7		1.47e7	1.65e7	CG30383	SID104184854
2.39e7	3.31e7		1.25e7	1.42e7	CG34181	SID104180863
2.23e7	2.25e7		1.16e7	1.14e7	CG10996	SID104199155
4.07e7	4.84e7		2.11e7	2.20e7	egl	SID104184474
3.87e7	4.07e7		1.88e7	1.89e7	pdgy	SID104198856
3.21e7	4.31e7		1.64e7	1.89e7	pdgy	SID104199133
2.52e7	3.51e7		1.16e7	1.43e7	TMEM216 + CG11760	SID104194167
